Experimental data reported in patent publication US20040204388A1 (UCB, published 2004).
Results are given in words; binding and its absence hold for the method and conditions named. In cells and extracts the contact can be indirect. Some entries that bind do so weakly or less than the wild type.

Sequences of proteins named here, by UniProt entry; tags and fusion partners are left off. A change or cut given only in a name is not applied to a line headed by its entry.
UniProt Q02563: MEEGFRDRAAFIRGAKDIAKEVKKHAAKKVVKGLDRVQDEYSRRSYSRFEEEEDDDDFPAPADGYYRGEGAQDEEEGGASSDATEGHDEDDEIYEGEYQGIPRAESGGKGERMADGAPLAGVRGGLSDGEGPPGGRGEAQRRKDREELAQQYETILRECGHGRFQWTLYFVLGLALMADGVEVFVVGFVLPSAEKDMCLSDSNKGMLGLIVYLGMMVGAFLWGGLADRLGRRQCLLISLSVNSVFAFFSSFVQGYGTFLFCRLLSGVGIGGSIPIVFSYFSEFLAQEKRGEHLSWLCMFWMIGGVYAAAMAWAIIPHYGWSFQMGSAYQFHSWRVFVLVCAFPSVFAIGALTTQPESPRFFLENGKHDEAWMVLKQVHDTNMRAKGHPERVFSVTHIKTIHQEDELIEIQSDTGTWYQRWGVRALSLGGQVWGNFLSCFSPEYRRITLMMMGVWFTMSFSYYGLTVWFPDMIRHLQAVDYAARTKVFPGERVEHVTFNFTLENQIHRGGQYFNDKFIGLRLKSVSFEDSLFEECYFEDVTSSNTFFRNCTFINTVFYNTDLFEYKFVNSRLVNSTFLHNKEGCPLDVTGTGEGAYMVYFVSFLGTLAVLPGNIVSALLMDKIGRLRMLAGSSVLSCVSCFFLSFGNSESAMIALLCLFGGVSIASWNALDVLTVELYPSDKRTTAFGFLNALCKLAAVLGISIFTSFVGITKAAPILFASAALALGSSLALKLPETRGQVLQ
UniProt P21707: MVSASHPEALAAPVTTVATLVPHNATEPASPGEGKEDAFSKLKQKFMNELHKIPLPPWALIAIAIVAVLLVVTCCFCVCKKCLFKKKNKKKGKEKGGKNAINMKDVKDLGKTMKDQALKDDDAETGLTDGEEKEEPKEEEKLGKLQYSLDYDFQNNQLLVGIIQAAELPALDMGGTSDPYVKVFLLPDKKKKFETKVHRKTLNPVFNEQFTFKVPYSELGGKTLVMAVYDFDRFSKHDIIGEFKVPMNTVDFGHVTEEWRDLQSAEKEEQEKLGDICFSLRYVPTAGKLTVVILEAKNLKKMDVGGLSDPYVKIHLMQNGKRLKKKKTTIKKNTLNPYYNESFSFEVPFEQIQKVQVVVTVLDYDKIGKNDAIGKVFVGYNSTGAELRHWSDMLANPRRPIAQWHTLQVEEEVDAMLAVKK

Assays:
[1] = target: SV2A (rat; native protein of rat brain membranes, solubilized in n-dodecyl-β-D-maltoside; also endogenous in PC12bs cells) (rat) (UniProt Q02563); assay: co-immunopurification with anti-SV2A antibodies and protein A-Sepharose from solubilized rat brain membranes, Western blot
[2] = target: SV2A (rat; native protein of rat brain membranes, solubilized in n-dodecyl-β-D-maltoside; also endogenous in PC12bs cells) (rat) (UniProt Q02563); assay: co-immunopurification with anti-SV2A antibodies, Western blot (FIG. 22)
[3] = target: SV2A (rat; native protein of rat brain membranes, solubilized in n-dodecyl-β-D-maltoside; also endogenous in PC12bs cells) (rat) (UniProt Q02563); assay: co-purification: fractions immunopurified with anti-SV2A antibodies from solubilized rat brain membranes, Western blot for synaptotagmin

Measured: binding

synaptotagmin (native, from solubilized rat brain membranes) (from UniProt P21707 1-421)
binds: all assays above
